This passage reports AC50 results from PubChem BioAssay AID493014 (National Center for Advancing Translational Sciences (NCATS), 2011).

This is one part of the list. Shown are side measurements of this screen, not its main read-out; they come without a call. Most of these compounds were active or inconclusive in the main read-out, so they are no random draw. Potencies come from curve fits of mixed quality, noted in brackets.

This experiment in a line: qHTS Assay to Find Inhibitors of Chronic Active B-Cell Receptor Signaling. The note with it: ABC-DLBCL IkBa-CBG/CBR reporter, luminescence ratio (green luciferase fused to IkBa over red control in TMD8 lymphoma cells), 4 h. The method in brief:
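Compounds up to 46 uM were incubated four hours with TMD8 cells whose green CBG68 luciferase is fused to IkappaBalpha; red CBR luminescence normalised the signal, and concentration-effect curves were fitted to fusion, red and ratio data.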
Background: In qHTS, concentration-response curves come from the screen itself.

[1] abbreviates: measured here: CBR red luminescence, cell number.
Setting [2] is: measured here: IkBa-CBG green luminescence.

For the compound `Cc1ccccc1OCc1nc(-c2ccc(NC(=O)c3ccc4c(c3)OCO4)cc2)no1`, under setting [1], the AC50 (as a rule, the concentration giving half of the maximal activity seen) is 0.501 µM [falling, full curve, poor fit].

In the case of `COc1ccc(C)cc1NC(=O)NNC(=O)c1ccoc1C`, the AC50 under setting [1] was 35.5 µM [rising, single point].

`CCOC(=O)[C@H]1[C@H]2COc3cc(OC)ccc3[C@@H]2N2C(=O)CN(Cc3ccc(C)cc3)C(=O)[C@@]12C`: the AC50 under setting [1] is 0.00411 µM [rising, full curve, poor fit].

With `COc1ccc(C(=O)NCC(=O)N/N=C/C=C/c2ccccc2)cc1OC`, under setting [1], the AC50 was 22.4 µM [rising, single point].

As for `CCOC(=O)C1CCN(C(c2cc(OC)c(OC)c(OC)c2)c2sc3nc(C)nn3c2O)CC1` (configuration not stated), under setting [1], the AC50 is 32.6 µM [rising, partial curve, poor fit].

With `COc1ccc(C(=O)NCc2nnc(SCC(=O)N3CCC(C)CC3)o2)cc1OC`, under setting [1], the AC50 was 20.6 µM [rising, partial curve, poor fit].

For `Cc1ccc(NC(=S)NC(=O)c2c(-c3ccccc3Cl)noc2C)cc1`, the AC50 under setting [1] is 6.31 µM [falling, single point].

Take `COc1ccc(/C=C/C=C2\NC(=S)NC2=O)cc1`: under setting [1], the AC50 is 12.6 µM [rising, partial curve].

Consider `CC(C)n1c(SCC(=O)N2CCCC2)nc2c1c(=O)n(C)c(=O)n2C`, for which the AC50 under setting [1] is 7.94 µM [rising, partial curve, poor fit].

Take `CCOC(=O)c1ccc(COC(=O)CNC(=O)CNC(=O)c2ccc(OC)cc2)o1`: the AC50 under setting [1] is 20.6 µM [rising, partial curve, poor fit].

With `O=C(COC(=O)c1n[nH]c2ccccc12)Nc1ccc([N+](=O)[O-])cc1`, the AC50 under setting [1] was 2.06 µM [rising, full curve].

As to `O=C(c1ccc(Cl)cc1)C1C2C(=O)N(c3ccccc3)C(=O)C2C2CCCN21` (configuration not stated), the AC50 under setting [1] is 20 µM [falling, partial curve, poor fit].

Regarding `O=[N+]([O-])c1cc(C(F)(F)F)ccc1NCCOc1ccccc1`, the AC50 under setting [1] was 2.59 µM [rising, full curve].

For `N#Cc1nc(-c2cccs2)oc1NCc1ccccc1`, the AC50 under setting [1] was 6.31 µM [rising, partial curve, poor fit].

For the compound `COc1cccc(CNC(=O)Cc2ccc(-n3c(=O)[nH]c4ccccc4c3=O)cc2)c1`, the AC50 was 23.1 µM [rising, single point] under setting [1] and 32.6 µM [falling, partial curve, poor fit] under setting [2].

`N#Cc1ccc(C(=O)NCC2CCCCC2)cc1`: the AC50 under setting [1] is 11.2 µM [rising, partial curve, poor fit].

`COc1ccc(Cl)cc1NC(=O)c1cnc2sccn2c1=O`: the AC50 under setting [1] is 1.3 µM [rising, full curve, poor fit].

With `Cn1c(CC(=O)Nc2ccc(F)cc2)c(Sc2ccccc2)c2ccccc21`, the AC50 under setting [1] was 0.82 µM [falling, full curve, poor fit].

For the compound `COc1ccc(C2CC(=O)c3cnn(-c4nc(C)cc(C)n4)c3C2)cc1OC` (configuration not stated), the AC50 under setting [1] is 0.316 µM [rising, full curve, poor fit].

In the case of `COc1ccc(C2=NN(c3ccc(C(=O)O)cc3)C(c3ccc(OC)c(OC)c3)C2)cc1` (configuration not stated), the AC50 reads like this: under setting [1], 7.94 µM [falling, partial curve]; under setting [2], 35.5 µM [falling, single point].

Take `CC(C)N1C(=O)S/C(=C/c2ccc(Sc3nc4ccccc4[nH]3)o2)C1=O`: the AC50 under setting [1] was 5.17 µM [rising, full curve, poor fit].

As to `Cc1ccc(S(=O)(=O)NC(=NCC(=O)O)c2ccc(F)cc2)cc1`, under setting [1], the AC50 is 0.0082 µM [falling, full curve, poor fit].

For the compound `COc1ccccc1/C=C/C(=O)OCC(=O)NC(=O)NC1CCCC1`, the AC50 under setting [1] was 13 µM [falling, single point].

Take `O=C(C1COc2ccccc2O1)N1CCN(c2ccc(F)cc2)CC1` (configuration not stated): the AC50 under setting [1] is 20 µM [rising, single point].

In the case of `CCOC(=O)c1c(C)[nH]c(C2=NNC(=Nc3ccccc3OC)SC2)c1C`, the AC50 under setting [1] was 11.6 µM [falling, partial curve].

With `c1ccc2c(CSCCc3ccncc3)cccc2c1`, under setting [1], the AC50 was 14.1 µM [rising, partial curve, poor fit].

As for `COc1cc2c(cc1OC)C(c1ccccc1F)NCC2` (configuration not stated), under setting [1], the AC50 was 12.6 µM [rising, partial curve, poor fit].

Regarding `CCCNC(=O)c1cc(S(=O)(=O)N2CCc3ccccc32)ccc1F`, the AC50 under setting [1] is 0.731 µM [falling, partial curve, poor fit].

Turning to `Cc1ccsc1/C=N\NC(=O)c1cc(C(C)(C)C)[nH]n1`, the AC50 under setting [1] is 28.2 µM [falling, single point].

Turning to `COc1ccc(C(=O)Nc2ccc(C)cc2C(=O)c2ccccc2)cc1`, under setting [1], the AC50 was 29.1 µM [rising, single point].

On to `CCCCCc1cc(=O)oc2c(C(CCN3CCCC(C)C3)c3ccc(N(C)C)cc3)c(OC)cc(OC)c12` (configuration not stated), for which the AC50 under setting [1] is 2.82 µM [rising, single point].

Regarding `CC1CCCN(C(=O)c2cc(F)c(F)cc2Cl)C1` (configuration not stated), the AC50 under setting [1] is 4.11 µM [rising, full curve].

On to `CCOc1ccc(N/C(SCc2cccc([N+](=O)[O-])c2)=C(/C#N)C(N)=O)cc1`, for which the AC50 under setting [1] was 25.1 µM [falling, single point].

`COc1ccccc1OCCCOc1ccc([N+](=O)[O-])cc1Cl`: the concentration at half-maximal activity (AC50) under setting [1] was 1.41 µM [rising, full curve].

Turning to `CCc1cccc(OCC(=O)Nc2ccc(C)c(S(=O)(=O)N3CCCCCC3)c2)c1`, under setting [1], the AC50 was 23.1 µM [rising, partial curve, poor fit].

Consider `O=C(Cn1ncc2c3ccccc3n(Cc3ccccc3)c2c1=O)NCCN1CCOCC1`, for which, under setting [1], the AC50 is 15.8 µM [falling, single point].

In the case of `CC(=O)c1cnc2cc(-c3ccc(Cl)cc3)nn2c1C`, the AC50 under setting [1] is 32.6 µM [rising, single point].

`Oc1c(/C=N/c2ccccn2)sc2ccccc12`: the AC50 under setting [1] is 8.91 µM [falling, partial curve, poor fit].

For the compound `Clc1ccc(OCc2cc(-c3ccccc3)no2)cc1Cl`, under setting [1], the AC50 is 3.26 µM [falling, single point].

Consider `COc1cc(/C=C/C(=O)c2ccccc2O)cc(OC)c1OC`, for which the AC50 under setting [1] is 3.98 µM [rising, partial curve].

Take `COc1ccc(C2CCCN2C(=O)Nc2cccc(C(C)=O)c2)cc1OC` (configuration not stated): the AC50 under setting [1] was 6.51 µM [falling, single point].

For the compound `Cc1c(CC(=O)O)c(=O)oc2c(C)c(OCc3c(F)cccc3Cl)ccc12`, the AC50 under setting [1] was 35.5 µM [falling, single point].

In the case of `COc1ccc(N2CCN(c3nc(Nc4ccc(C)c(F)c4)nc(N4CCCC4)n3)CC2)cc1`, the AC50 under setting [1] was 6.31 µM [rising, single point].

Consider `O=C(NC(=O)c1ccc(Cl)cc1)Nc1ccc(-c2cnco2)cc1`, for which the AC50 under setting [1] was 17.8 µM [falling, single point].

For the compound `COc1ccc(C(=O)Nc2ccccc2C(=O)N/N=C/c2ccccn2)cc1OC`, the AC50 under setting [1] is 10 µM [falling, partial curve, poor fit].

Regarding `Cc1c(CCO)c(=O)[nH]n1S(=O)(=O)c1ccccc1`, the AC50 under setting [1] is 11.2 µM [rising, partial curve, poor fit].

On to `S=C(NCCc1ccccn1)Nc1ccc(Cl)cc1`, for which, under setting [1], the concentration at half-maximal activity (AC50) was 7.31 µM [rising, partial curve, poor fit].

For `CCN(CC)c1ccc2cc(-c3nc(-c4ccc(OC)cc4)cs3)c(=O)oc2c1`, the AC50 under setting [1] is 3.66 µM [falling, single point].

`CN(C)/C(CN1CCOCC1)=C1\N=C(c2ccccc2)OC1=O`: the AC50 under setting [1] is 3.16 µM [falling, partial curve, poor fit].

Take `Cc1cc(C)n2nc(CC(=O)NNC(=O)COc3ccccc3)nc2n1`: the AC50 under setting [1] was 1.12 µM [rising, partial curve, poor fit].

On to `Cc1ccc(NC(=O)COc2cccc(Oc3ccccc3)c2)cc1S(=O)(=O)N1CCOCC1`, for which the AC50 by setting is: under setting [1], 13 µM [rising, partial curve]; under setting [2], 16.4 µM [falling, partial curve, poor fit].

In the case of `CCOc1ncccc1C(=O)NCc1ccc(C)cc1`, under setting [1], the AC50 is 5.8 µM [falling, full curve].

With `CCOC(=O)c1c(NC(=O)CSc2ncccn2)sc2c1CCN(Cc1ccccc1)C2`, the AC50 is 29.1 µM [falling, single point] under setting [1] and 20.6 µM [rising, partial curve, poor fit] under setting [2].

With `CCOc1ccc(-c2cc(C(=O)NN=C3CCN(C)CC3)[nH]n2)cc1`, under setting [1], the AC50 is 6.31 µM [rising, single point].

As for `COc1cc(-c2cccs2)cc(=O)c2c(C)oc(C)c12`, under setting [1], the AC50 was 12.6 µM [falling, partial curve, poor fit].

With `CCOC(=O)c1c(C)[nH]c(C)c1C(=O)CSc1nnc(-c2ccc(OC(F)F)cc2)o1`, the AC50 by setting is: under setting [1], 13 µM [rising, partial curve]; under setting [2], 23.1 µM [falling, single point].

`Cc1ccc2[nH]c(CCN(C)C)c(CC#N)c2c1`: under setting [1], the AC50 was 4.11 µM [falling, full curve, poor fit].

Take `O=C(Cc1cccc(F)c1)Nc1ccc2c(c1)CCC2`: the AC50 under setting [1] is 0.355 µM [rising, full curve].

For `Oc1oc(-c2ccco2)nc1C=Nc1ccccc1`, the AC50 reads like this: under setting [1], 5.17 µM [falling, partial curve]; under setting [2], 3.66 µM [rising, partial curve, poor fit].

Take `Cc1nc(SCC(=O)CC(=O)OC(C)C)c(C#N)c(C)c1C`: the AC50 under setting [1] is 2.31 µM [rising, partial curve, poor fit].

Regarding `O=C(NNC1=NS(=O)(=O)c2ccccc21)c1ccc(Cl)cc1`, the AC50 under setting [1] was 14.1 µM [falling, partial curve].
